± gives the standard deviation of the averaged measurements. The list shows a part of the results.
Compound: Nc1nc2c(ncn2[C@@H]2O[C@H](COP(=O)(O)OP(=O)(O)OP(=O)(O)O)[C@@H](O)[C@H]2O)c(=O)[nH]1 [guanosine triphosphate]
Test: NP40-soluble protein abundance relative to vehicle (solubility fold change) (ratio); higher = more soluble protein in presence of GTP
Summary of the method: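 Each value is a fold change relative to the detergent-processed vehicle, calculated per replicate from vsn-normalised intensities. Jurkat crude lysate received eight concentrations (0.1 to 10 mM) for 10 min at room temperature and 3 min at 37 °C, then was solubilised in 0.8% NP40 with benzonase (60 min, 4 °C). The ultracentrifuged supernatant was TMT-labelled and run by LC-MS/MS in three independent experiments.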

Sequences of proteins named here, by UniProt entry; tags and fusion partners are left off. A change or cut given only in a name is not applied to a line headed by its entry.
UniProt Q15365, whole entry: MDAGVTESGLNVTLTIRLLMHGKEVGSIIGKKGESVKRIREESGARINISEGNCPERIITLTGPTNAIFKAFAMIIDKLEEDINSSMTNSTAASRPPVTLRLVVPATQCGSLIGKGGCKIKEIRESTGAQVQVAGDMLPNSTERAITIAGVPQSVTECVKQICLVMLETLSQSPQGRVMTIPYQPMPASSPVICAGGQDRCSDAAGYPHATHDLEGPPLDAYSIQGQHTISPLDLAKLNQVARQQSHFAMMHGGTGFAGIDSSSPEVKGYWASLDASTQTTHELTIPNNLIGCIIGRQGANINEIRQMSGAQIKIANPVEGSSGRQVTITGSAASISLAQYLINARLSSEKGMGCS
UniProt Q5JTD0: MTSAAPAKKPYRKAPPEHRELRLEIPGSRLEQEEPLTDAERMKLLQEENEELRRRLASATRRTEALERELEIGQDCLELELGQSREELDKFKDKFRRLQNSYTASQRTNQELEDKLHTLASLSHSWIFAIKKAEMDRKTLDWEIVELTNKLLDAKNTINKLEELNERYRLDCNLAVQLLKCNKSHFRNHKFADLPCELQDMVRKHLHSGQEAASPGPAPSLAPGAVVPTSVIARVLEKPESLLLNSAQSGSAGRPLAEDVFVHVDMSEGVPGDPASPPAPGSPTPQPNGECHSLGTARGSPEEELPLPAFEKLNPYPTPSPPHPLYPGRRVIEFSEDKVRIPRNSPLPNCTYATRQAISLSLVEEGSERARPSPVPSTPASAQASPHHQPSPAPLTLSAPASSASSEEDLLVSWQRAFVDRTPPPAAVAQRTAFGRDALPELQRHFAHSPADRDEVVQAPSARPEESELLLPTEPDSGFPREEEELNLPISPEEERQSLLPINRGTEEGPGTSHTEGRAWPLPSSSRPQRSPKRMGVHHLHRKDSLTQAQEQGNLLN
UniProt Q15599: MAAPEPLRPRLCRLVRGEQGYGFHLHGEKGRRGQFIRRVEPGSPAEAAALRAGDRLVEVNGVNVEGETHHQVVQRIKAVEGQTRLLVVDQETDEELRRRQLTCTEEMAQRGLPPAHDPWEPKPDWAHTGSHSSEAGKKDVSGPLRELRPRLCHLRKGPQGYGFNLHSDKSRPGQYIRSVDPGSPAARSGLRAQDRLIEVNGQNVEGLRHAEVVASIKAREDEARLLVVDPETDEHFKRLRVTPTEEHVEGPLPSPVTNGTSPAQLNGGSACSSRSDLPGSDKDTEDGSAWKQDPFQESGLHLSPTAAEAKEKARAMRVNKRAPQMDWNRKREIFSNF
UniProt Q15020: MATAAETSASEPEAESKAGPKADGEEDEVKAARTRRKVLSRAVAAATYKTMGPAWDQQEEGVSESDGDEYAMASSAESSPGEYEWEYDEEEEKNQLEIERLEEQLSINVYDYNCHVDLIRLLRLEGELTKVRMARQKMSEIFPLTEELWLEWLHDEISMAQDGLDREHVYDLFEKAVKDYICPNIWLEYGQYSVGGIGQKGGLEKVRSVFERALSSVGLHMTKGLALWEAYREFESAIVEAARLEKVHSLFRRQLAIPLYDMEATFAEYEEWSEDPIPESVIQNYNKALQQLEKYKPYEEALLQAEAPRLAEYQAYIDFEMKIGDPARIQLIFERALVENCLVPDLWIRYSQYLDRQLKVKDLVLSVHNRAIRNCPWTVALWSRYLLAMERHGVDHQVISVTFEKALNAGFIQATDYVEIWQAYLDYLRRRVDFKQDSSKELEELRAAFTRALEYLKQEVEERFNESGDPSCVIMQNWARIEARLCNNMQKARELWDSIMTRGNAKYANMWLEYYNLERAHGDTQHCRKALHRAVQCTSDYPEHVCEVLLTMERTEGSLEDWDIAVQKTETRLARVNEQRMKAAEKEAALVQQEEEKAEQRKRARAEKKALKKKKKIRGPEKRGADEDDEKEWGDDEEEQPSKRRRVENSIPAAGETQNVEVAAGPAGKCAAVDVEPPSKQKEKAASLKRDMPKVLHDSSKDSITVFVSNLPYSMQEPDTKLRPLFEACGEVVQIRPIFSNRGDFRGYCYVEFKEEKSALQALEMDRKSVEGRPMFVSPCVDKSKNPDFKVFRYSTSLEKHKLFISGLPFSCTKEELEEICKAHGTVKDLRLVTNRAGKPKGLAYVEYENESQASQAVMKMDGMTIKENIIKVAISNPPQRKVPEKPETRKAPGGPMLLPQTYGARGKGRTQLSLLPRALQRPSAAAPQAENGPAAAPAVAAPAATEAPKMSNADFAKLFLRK
UniProt Q4G148: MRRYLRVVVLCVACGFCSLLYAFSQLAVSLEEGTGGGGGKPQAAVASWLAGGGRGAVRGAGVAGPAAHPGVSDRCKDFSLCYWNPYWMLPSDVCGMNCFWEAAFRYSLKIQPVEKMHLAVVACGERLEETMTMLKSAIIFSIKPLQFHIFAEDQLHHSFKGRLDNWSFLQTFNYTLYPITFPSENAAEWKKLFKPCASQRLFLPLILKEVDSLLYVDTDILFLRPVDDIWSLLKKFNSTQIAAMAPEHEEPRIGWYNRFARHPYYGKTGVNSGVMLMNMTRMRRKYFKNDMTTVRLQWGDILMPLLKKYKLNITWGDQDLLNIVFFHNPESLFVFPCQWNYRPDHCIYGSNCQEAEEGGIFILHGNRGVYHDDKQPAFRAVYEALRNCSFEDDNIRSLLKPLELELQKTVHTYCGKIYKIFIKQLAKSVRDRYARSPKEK
UniProt Q53EZ4: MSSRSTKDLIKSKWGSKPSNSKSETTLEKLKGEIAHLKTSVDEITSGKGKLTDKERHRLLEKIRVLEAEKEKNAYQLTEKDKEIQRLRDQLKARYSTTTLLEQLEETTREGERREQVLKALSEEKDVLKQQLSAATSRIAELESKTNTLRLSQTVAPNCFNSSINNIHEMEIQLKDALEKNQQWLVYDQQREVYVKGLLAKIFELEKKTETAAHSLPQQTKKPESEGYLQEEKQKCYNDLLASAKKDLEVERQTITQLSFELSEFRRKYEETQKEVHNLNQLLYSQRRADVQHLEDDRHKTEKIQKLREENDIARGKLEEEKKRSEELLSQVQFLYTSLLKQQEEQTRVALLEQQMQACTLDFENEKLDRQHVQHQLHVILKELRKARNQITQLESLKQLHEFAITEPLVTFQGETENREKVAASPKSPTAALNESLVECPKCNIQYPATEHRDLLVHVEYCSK
UniProt Q8IVH4: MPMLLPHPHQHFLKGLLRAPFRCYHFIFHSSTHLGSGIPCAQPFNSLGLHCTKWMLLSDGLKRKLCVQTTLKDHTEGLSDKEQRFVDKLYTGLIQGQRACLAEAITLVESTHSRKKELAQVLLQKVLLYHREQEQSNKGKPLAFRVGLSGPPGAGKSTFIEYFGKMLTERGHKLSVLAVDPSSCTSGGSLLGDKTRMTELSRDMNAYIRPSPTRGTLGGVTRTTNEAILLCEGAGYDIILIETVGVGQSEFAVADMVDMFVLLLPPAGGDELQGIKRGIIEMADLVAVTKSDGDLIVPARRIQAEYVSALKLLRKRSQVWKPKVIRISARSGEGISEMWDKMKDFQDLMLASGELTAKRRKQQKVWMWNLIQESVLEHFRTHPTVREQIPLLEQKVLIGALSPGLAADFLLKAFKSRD
UniProt Q5C9Z4: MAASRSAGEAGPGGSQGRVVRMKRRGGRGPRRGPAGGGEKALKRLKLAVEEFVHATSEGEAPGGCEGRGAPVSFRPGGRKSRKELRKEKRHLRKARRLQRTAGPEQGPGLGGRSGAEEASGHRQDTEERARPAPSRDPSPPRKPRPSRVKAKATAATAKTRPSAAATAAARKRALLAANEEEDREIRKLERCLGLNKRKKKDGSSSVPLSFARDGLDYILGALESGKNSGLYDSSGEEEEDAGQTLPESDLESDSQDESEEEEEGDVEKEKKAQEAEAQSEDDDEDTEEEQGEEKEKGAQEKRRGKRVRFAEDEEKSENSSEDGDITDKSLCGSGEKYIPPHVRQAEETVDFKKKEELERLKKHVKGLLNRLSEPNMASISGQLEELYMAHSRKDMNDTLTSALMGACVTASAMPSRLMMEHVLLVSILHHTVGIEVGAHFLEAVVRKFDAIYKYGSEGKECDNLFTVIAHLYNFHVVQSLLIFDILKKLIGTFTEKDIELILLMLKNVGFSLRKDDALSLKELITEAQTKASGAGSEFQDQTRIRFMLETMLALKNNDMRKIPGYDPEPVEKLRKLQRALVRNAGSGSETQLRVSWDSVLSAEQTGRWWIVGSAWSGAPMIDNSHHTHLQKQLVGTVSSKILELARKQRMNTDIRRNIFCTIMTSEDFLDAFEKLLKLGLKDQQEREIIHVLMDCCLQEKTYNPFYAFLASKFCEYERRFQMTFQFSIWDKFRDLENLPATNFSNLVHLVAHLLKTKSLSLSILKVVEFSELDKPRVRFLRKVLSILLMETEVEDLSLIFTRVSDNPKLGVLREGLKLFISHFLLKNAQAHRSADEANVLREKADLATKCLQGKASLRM
UniProt Q16656: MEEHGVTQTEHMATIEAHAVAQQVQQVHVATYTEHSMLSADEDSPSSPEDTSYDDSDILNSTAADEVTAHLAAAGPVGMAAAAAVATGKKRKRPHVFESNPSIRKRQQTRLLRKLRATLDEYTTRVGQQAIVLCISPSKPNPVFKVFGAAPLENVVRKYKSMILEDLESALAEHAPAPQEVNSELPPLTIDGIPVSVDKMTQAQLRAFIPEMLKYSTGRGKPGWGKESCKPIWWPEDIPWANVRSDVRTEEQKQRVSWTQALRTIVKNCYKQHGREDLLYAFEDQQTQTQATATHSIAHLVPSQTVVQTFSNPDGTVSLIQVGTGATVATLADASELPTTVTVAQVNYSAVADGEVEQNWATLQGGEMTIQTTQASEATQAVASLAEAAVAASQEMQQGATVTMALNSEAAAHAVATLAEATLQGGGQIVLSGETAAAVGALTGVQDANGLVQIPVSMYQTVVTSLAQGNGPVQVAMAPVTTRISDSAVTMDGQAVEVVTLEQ
UniProt Q15393: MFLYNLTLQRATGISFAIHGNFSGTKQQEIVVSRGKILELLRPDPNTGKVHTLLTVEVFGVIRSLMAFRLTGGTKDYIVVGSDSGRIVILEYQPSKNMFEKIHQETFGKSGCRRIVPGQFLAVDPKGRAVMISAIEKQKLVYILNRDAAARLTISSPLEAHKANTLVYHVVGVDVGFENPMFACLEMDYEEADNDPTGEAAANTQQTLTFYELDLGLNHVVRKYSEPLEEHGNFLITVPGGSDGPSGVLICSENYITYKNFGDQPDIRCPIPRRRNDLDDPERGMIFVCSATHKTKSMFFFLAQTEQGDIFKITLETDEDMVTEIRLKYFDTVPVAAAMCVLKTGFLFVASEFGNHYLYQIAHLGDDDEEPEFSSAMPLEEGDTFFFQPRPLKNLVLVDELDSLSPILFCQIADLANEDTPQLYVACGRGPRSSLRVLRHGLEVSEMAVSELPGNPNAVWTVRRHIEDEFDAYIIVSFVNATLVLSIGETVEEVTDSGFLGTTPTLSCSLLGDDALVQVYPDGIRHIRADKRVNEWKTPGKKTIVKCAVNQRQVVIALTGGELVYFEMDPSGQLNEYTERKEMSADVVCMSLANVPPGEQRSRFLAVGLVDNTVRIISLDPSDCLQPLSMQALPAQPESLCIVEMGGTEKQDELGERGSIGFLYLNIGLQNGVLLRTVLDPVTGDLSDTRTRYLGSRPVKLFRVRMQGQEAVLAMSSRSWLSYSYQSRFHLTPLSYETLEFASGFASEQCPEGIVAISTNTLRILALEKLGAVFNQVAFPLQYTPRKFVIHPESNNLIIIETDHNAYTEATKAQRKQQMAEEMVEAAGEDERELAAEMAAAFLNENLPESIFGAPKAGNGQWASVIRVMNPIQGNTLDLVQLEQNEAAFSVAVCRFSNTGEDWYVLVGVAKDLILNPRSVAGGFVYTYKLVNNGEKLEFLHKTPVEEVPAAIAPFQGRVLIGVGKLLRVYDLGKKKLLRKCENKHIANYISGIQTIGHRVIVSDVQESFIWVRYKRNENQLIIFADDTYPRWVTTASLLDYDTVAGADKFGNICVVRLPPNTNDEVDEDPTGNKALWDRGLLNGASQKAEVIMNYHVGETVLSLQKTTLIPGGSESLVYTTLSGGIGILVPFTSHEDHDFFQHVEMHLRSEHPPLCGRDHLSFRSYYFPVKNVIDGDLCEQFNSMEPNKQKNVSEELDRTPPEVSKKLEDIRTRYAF

Target | NP40-soluble protein abundance (concentration: 0.1mM) | NP40-soluble protein abundance (concentration: 0.5mM) | NP40-soluble protein abundance (concentration: 1mM) | NP40-soluble protein abundance (concentration: 2mM) | NP40-soluble protein abundance (concentration: 4mM) | NP40-soluble protein abundance (concentration: 6mM) | NP40-soluble protein abundance (concentration: 8mM) | NP40-soluble protein abundance (concentration: 10mM)
UniProt Q15365 | 0.941 ± 0.089 | 0.933 ± 0.078 | 0.953 ± 0.072 | 0.935 ± 0.077 | 0.952 ± 0.074 | 0.931 ± 0.053 | 0.939 ± 0.085 | 0.951 ± 0.071
UniProt Q5JTD0 and related entries | 0.95 ± 0.046 | 0.956 ± 0.071 | 1.08 ± 0.05 | 0.993 ± 0.1 | 0.96 ± 0.05 | 1.01 ± 0.13 | 1.04 ± 0.076 | 0.996 ± 0.07
UniProt Q15149 and related entries | 1.06 ± 0.038 | 1.18 ± 0.042 | 1.27 ± 0.046 | 1.35 ± 0.036 | 1.42 ± 0.079 | 1.43 ± 0.083 | 1.48 ± 0.12 | 1.42 ± 0.098
UniProt Q15599 and related entries | 0.981 ± 0.14 | 0.912 ± 0.049 | 0.953 ± 0.035 | 1.02 ± 0.075 | 0.988 ± 0.05 | 1.02 ± 0.15 | 1.01 ± 0.057 | 0.982 ± 0.092
UniProt Q5T0F9-2 | 0.938 ± 0.078 | 0.975 ± 0.12 | 0.933 ± 0.098 | 0.928 ± 0.12 | 0.893 ± 0.092 | 0.911 ± 0.13 | 0.952 ± 0.12 | 0.946 ± 0.12
UniProt Q15020 and related entries | 1 ± 0.03 | 1.04 ± 0.025 | 0.994 ± 0.018 | 0.994 ± 0.034 | 0.99 ± 0.035 | 1 ± 0.038 | 1.03 ± 0.078 | 0.99 ± 0.044
UniProt Q4G148 and related entries | 1.03 ± 0.021 | 1.01 ± 0.027 | 1.03 ± 0.046 | 1.02 ± 0.039 | 1.07 ± 0.062 | 0.994 ± 0.045 | 0.986 ± 0.12 | 1.04 ± 0.12
CEP55 (UniProt Q53EZ4) | 0.909 ± 0.045 | 0.952 ± 0.078 | 1.01 ± 0.097 | 1.01 ± 0.12 | 1.02 ± 0.07 | 1.01 ± 0.077 | 1.04 ± 0.044 | 1.13 ± 0.044
Q495G5 and related entries (UniProt Q8IVH4) | 1.1 ± 0.031 | 1.09 ± 0.026 | 1 ± 0.11 | 0.984 ± 0.067 | 0.957 ± 0.063 | 0.987 ± 0.055 | 0.909 ± 0.07 | 0.927 ± 0.079
NOM1 (UniProt Q5C9Z4) | 0.988 ± 0.088 | 0.987 ± 0.1 | 1.05 ± 0.069 | 1.09 ± 0.11 | 1.13 ± 0.12 | 1.18 ± 0.093 | 1.24 ± 0.11 | 1.27 ± 0.14
UniProt Q16656 and related entries | 0.955 ± 0.046 | 0.929 ± 0.049 | 0.926 ± 0.061 | 0.95 ± 0.11 | 0.916 ± 0.066 | 0.946 ± 0.11 | 0.932 ± 0.07 | 0.955 ± 0.092
TSC22D1 (UniProt Q15714) | 0.935 ± 0.039 | 1.06 ± 0.084 | 1.08 ± 0.09 | 1.06 ± 0.16 | 0.974 ± 0.085 | 1.03 ± 0.12 | 1.03 ± 0.012 | 1.06 ± 0.16
SF3B3 (UniProt Q15393) | 1.07 ± 0.024 | 1.12 ± 0.063 | 1.09 ± 0.079 | 1.13 ± 0.12 | 1.18 ± 0.13 | 1.18 ± 0.13 | 1.15 ± 0.11 | 1.13 ± 0.099

Shown comma-delimited: entries from further up
Target,NP40-soluble protein abundance (concentration: 0.1mM),NP40-soluble protein abundance (concentration: 0.5mM),NP40-soluble protein abundance (concentration: 1mM),NP40-soluble protein abundance (concentration: 2mM),NP40-soluble protein abundance (concentration: 4mM),NP40-soluble protein abundance (concentration: 6mM),NP40-soluble protein abundance (concentration: 8mM),NP40-soluble protein abundance (concentration: 10mM)
Q495G5 and related entries (UniProt Q8IVH4),1.1 ± 0.031,1.09 ± 0.026,1 ± 0.11,0.984 ± 0.067,0.957 ± 0.063,0.987 ± 0.055,0.909 ± 0.07,0.927 ± 0.079
NOM1 (UniProt Q5C9Z4),0.988 ± 0.088,0.987 ± 0.1,1.05 ± 0.069,1.09 ± 0.11,1.13 ± 0.12,1.18 ± 0.093,1.24 ± 0.11,1.27 ± 0.14

Reference: the supplement of paper PMC6411743
